# Measured data: PubChem BioAssay AID1671195 (Yale University, 2021)
# Screen: 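Knockdowns that increase or decrease uptake of fluorescent LDL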 (primary screen)
# Cell system: human Huh7 hepatoma cells
# Knock-down reagent: siRNA pool against human genes, 18 nM
# Timing: about 2 to 2.5 days of knockdown, then 8 h LDL uptake
# Challenge: DiI-labelled LDL at 30 µg/ml for 8 h, in lipoprotein-deficient serum medium
# Measurement: 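Fluorescent LDL signal imaged in cells, scaled to the plate median, robust z-score for each replicate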
# Direction: robust z-score: higher = more LDL uptake after knockdown
# Hit rule: 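Active when two or more replicates show a robust z-score above 2 or below -2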
# Shown is a random part of about 22,000 reagents. About 1,510 of all reagents (6.9%) count as active. 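Active includes knockdowns raising or lowering LDL uptake; positive z-scores mean more uptake, negative mean less.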
gene,"robust z-score, replicate 1","robust z-score, replicate 2","robust z-score, replicate 3",Outcome
DMBT1,-0.836,0.0593,-0.39,inactive
SUCLA2,0.0297,0.122,-0.814,inactive
RDH13,-0.0581,1.09,0.0315,inactive
ECH1,1.05,0.458,1.34,inactive
CARD19,-0.329,-0.556,-1.26,inactive
ORC4,2.15,0.765,0.608,inactive
RAB3B,1.66,1.33,1.44,inactive
GLYATL3,0.128,0.565,0.354,inactive
ZDHHC20,0.288,0.647,0.646,inactive
EWSAT1,0.473,0.383,0.08,inactive
SNX6,-0.0869,0.0786,0.197,inactive
SLC9C2,-0.952,-1.06,-0.619,inactive
LOC440084,-1.51,-1.63,-1.48,inactive
DCPH1,0.0628,-0.0227,-0.627,inactive
HSD17B12,1.54,0.779,1.12,inactive
BRCA2,0.532,0.0716,0.328,inactive
CHD1L,0.101,-0.484,0.516,inactive
LOC730118,-0.484,-0.606,-0.117,inactive
MTA1,-0.0491,-0.667,0.175,inactive
CDC25A,-0.869,-0.215,-0.782,inactive
GSTCD,-0.687,-0.349,-0.827,inactive
PLCXD1,-0.438,-2.28,-0.737,inactive
TAS2R8,-0.506,-1.34,-0.249,inactive
ERV3-2,0.244,0.304,0.528,inactive
DNAJA4,-0.539,-0.0308,-0.215,inactive
RPS24P15,-0.861,-0.812,-0.558,inactive
LOC440788 (retired record),1.24,1.18,1.56,inactive
STAT5A,1.27,0.989,0.821,inactive

A portion of the results above:
gene,"robust z-score, replicate 1","robust z-score, replicate 2","robust z-score, replicate 3",Outcome
TAS2R8,-0.506,-1.34,-0.249,inactive
ERV3-2,0.244,0.304,0.528,inactive
DNAJA4,-0.539,-0.0308,-0.215,inactive
RPS24P15,-0.861,-0.812,-0.558,inactive
LOC440788 (retired record),1.24,1.18,1.56,inactive
